The values below come from US20050053940.

Data set [1] deals with T1, HD/TF-1 C-terminal fragment (Homo sapiens) (UniProt Q9NR83).
T1 sequence: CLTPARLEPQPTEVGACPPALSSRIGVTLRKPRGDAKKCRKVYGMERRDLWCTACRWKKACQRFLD
Kind of data set: footprint. The settings on record: DNase I; protects 7 bp gccggcg, three sites with 13 bp spacers; 10-400 ng protein; purified recombinant protein; protein details: GST fusion (pGEX-5); label: 32P.

In data set [2] the target is T2, HD/TF-2 C-terminal fragment (Homo sapiens) (UniProt Q9H8N7).
T2 sequence: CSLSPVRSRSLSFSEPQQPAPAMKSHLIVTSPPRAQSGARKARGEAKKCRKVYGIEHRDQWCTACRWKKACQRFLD
Kind of data set: footprint. The settings on record: DNase I; protects 7 bp gccggcg, three sites with 13 bp spacers; 10-400 ng protein; purified recombinant protein; protein details: GST fusion (pGEX-5); label: 32P.

Data set [3] concerns the target T1, HD/TF-1 C-terminal fragment (Homo sapiens). In words: EMSA. The settings on record: C-terminal region is the DNA-binding region; purified recombinant protein; protein details: GST fusion (pGEX-5); label: 32P. Background: Mobility shift assays separate free from complexed probe on a gel.
Data set [4] concerns the target T3, HD/TF-1 N-terminal fragment (Homo sapiens) (UniProt Q9NR83).
T3 sequence: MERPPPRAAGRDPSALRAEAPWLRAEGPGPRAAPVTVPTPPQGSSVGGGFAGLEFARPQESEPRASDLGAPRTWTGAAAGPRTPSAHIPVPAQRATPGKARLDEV
In words: EMSA. Particulars: implied; binding reported only for C-terminal fragment; purified recombinant protein; protein details: GST fusion (pGEX-5); label: 32P.

For data set [5], the target named is T4, HD/TF-1 middle fragment (Homo sapiens) (UniProt Q9NR83).
T4 sequence: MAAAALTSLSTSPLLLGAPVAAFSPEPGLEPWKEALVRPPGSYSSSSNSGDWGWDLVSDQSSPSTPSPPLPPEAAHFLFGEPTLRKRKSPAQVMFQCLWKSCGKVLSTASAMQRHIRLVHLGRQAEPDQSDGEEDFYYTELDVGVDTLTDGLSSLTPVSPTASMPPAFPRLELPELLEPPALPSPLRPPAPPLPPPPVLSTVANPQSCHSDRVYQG
Kind of data set: EMSA. The settings on record: implied; binding reported only for C-terminal fragment; purified recombinant protein; protein details: GST fusion (pGEX-5); label: 32P.

The target of data set [6] is T5, clone 2 cDNA product (partial HD/TF-1) (Homo sapiens) (UniProt Q9NR83).
T5 sequence (limits assumed): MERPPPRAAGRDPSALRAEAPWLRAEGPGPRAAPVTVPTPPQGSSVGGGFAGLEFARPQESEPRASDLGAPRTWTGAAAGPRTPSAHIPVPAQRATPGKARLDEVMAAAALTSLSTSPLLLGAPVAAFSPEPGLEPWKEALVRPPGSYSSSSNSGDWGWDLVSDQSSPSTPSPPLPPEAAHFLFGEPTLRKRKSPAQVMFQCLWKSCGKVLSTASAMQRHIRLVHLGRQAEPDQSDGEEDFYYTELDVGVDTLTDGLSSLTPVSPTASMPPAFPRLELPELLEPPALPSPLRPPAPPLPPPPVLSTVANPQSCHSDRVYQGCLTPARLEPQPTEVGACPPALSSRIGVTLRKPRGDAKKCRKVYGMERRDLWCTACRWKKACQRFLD
Kind of data set: one hybrid. Particulars: yeast one-hybrid reporter, unlabeled; protein in cells; label: 32P.

Data set [7] addresses T6, clone 8 cDNA product (HD/TF-2) (Homo sapiens) (UniProt Q9H8N7).
T6 sequence (limits assumed): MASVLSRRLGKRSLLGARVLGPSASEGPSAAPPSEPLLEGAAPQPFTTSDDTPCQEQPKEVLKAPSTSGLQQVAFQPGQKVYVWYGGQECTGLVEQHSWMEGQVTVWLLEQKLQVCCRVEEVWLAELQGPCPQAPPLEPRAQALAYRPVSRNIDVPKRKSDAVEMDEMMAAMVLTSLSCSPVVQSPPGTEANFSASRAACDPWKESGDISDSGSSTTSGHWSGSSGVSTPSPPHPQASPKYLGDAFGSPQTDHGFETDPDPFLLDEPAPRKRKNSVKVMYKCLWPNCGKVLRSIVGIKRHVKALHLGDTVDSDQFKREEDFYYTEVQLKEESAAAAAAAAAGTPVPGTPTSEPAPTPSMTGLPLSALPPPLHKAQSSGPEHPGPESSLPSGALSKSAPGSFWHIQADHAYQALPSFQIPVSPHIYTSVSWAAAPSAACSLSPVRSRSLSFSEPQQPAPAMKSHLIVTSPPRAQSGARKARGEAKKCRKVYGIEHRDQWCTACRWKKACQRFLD
In words: one hybrid. The settings on record: yeast one-hybrid reporter, unlabeled; protein in cells; protein details: GAL4 activation domain fusion (pACT2); label: 32P.

For at least one entry, the source does not settle the construct or the ends of the probe. For some of these results: No signal at the amounts used counts as a negative. Where a protein sequence is shown, tags need not be part of it.

With “GTTGAGCCCCGCGCCTTCGCCCGGGTGGGGCGCTGCGCTGTCAGCGGCTTGCTGTGTGAGGCAGAACCTGCGGGGGCAGGGGCGGGCTGGTTCCCTGGCCAGCCATTGGCAGAGTCCGCAGGCTAGGGCTGTCAATCATGCTGGCCGGCGTGGCCCCGCCTCCGCCGGCGCGGCCCCGCCTCCGCCGGCGCACGTCTGGGACGCAAGGCGCCGTGGGGGCTGCCGGGACGGGTCCAAGATGGACGGCCGCTCAGGTTCTGCTTTTACCTGCGGCCCAGAGCCCCATTCATTGCCCCGGTGCTGAGCGGCGCCGCGAGTCGGCCCGAGGCCTCCGGGGACTGCCGTGCCGGGCGGGAGACCGCCATGGCGACCCTGGAAAAGCTGATGAAGGCCTTCGAGTCCCTCAAGTCCTTCCAGCAGCAGCAGCAGCAGCAGCAGCAGCAGCAGCAGCAGCAGCAGCAGCAGCAGCAGCAGCAGCAACAGCCGCCACCGCCGCCGCCGCCGCCGCCGCCTCCTCAGCTTCCTCAGCC (double strand) [HD gene R1+R2 (-364 to -113)]”, the binding result in data set [1] and in data set [2] was “binds” in each case.
On to “GTTGAGCCCCGCGCCTTCGCCCGGGTGGGGCGCTGCGCTGTCAGCGGCTTGCTGTGTGAGGCAGAACCTGCGGGGGCAGGGGCGGGCTGGTTCCCTGGCCAGCCATTGGCAGAGTCCGCAGGCTAGGGCTGTCAATCATGCTGGCCGGCGTGGCCCCGCCTCCGCCGGCGCGGCCCCGCCTCCGCCGGCGCACGTCTGGGACGCAAGGCGCCGTGGGGGCTGCCGGGACGGGTCCAAGATGGACGGCCGCTCAGGTTCTGCTTTTACCTGCGGCCCAGAGCCCCATTCATTGCCCCGGTGCTGAGCGGCGCCGCGAGTCGGCCCGAGGCCTCCGGGGACTGCCGTGCCGGGCGGGAGACCGCCATGGCGACCCTGGAAAAGCTGATGAAGGCCTTCGAGTCCCTCAAGTCCTTCCAGCAGCAGCAGCAGCAGCAGCAGCAGCAGCAGCAGCAGCAGCAGCAGCAGCAGCAGCAGCAGCAACAGCCGCCACCGCCGCCGCCGCCGCCGCCGCCTCCTCAGCTTCCTCAGCC (double strand) [HD gene R2 (-230 to -113)]”, for which the binding result is “binds” in data set [3], “no binding” in data set [4] and “no binding” in data set [5]. The “activity on this sequence” value in data set [6] and in data set [7] was “active” in each case.
